These are yes or no findings as the source states them, for the method shown. In cells and extracts the contact can be indirect. Some results given as binding are weak or reduced against the parent protein; the word gives no strength. Sequences can lack the tags named with a protein.
What was measured:
[1] = molecular target: T1, HsSen34 (human) (UniProt Q9BSV6); assay: co-purification (anti-Flag then Ni beads), SDS-PAGE, silver staining
T1 sequence (looked up): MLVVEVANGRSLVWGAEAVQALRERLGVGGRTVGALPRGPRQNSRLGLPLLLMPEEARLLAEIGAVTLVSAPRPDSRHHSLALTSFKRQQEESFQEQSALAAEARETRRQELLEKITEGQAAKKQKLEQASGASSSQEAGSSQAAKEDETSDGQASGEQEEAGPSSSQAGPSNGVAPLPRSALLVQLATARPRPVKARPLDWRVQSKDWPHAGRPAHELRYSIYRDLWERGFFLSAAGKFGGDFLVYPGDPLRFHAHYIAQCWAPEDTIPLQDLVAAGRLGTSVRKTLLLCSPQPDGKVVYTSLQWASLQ

[2] = molecular target: T2, Symplekin (human) (UniProt Q92797); assay: co-purification with the His-Flag-tagged bait from stable 293 cells (anti-Flag beads, then Ni beads); SDS-PAGE, Western blot with anti-Symplekin antibody
T2 sequence (looked up): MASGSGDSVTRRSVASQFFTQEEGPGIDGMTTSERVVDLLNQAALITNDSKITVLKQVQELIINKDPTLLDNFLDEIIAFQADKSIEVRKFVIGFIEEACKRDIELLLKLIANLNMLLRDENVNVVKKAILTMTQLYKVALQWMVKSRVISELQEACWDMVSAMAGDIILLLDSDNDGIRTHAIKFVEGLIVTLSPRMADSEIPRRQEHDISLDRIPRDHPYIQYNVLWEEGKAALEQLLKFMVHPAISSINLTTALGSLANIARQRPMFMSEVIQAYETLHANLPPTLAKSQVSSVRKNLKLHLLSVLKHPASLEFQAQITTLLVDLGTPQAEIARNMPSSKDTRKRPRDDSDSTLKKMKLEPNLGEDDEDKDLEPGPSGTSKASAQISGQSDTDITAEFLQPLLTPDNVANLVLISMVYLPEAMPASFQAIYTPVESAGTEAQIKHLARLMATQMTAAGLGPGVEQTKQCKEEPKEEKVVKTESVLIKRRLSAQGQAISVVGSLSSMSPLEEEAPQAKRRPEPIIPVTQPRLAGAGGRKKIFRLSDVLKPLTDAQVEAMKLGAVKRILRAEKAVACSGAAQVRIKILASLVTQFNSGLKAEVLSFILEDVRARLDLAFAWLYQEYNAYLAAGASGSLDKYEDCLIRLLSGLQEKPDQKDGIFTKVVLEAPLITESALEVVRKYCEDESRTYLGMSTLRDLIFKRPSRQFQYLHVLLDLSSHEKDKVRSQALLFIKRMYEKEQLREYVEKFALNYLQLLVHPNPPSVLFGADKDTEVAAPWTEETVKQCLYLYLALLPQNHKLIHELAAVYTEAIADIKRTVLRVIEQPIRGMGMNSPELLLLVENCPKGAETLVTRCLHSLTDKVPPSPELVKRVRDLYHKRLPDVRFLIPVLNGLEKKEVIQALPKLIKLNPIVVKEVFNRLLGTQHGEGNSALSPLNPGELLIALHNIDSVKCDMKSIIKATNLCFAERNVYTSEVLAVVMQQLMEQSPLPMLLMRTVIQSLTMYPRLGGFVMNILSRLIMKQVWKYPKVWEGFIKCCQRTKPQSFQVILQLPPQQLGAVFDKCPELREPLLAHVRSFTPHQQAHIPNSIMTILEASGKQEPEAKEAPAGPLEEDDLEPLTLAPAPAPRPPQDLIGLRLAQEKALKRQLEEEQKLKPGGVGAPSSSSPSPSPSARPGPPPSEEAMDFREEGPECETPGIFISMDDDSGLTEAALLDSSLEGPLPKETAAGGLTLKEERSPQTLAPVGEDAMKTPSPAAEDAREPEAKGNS

B1: His-Flag-HsClp1 (protein, human, UniProt Q92989 1-425, looked up, not shown: small tags and cut ends)
chain: MGEEANDDKKPTTKFELERETELRFEVEASQSVQLELLTGMAEIFGTELTRNKKFTFDAGAKVAVFTWHGCSVQLSGRTEVAYVSKDTPMLLYLNTHTALEQMRRQAEKEEERGPRVMVVGPTDVGKSTVCRLLLNYAVRLGRRPTYVELDVGQGSVSIPGTMGALYIERPADVEEGFSIQAPLVYHFGSTTPGTNIKLYNKITSRLADVFNQRCEVNRRASVSGCVINTCGWVKGSGYQALVHAASAFEVDVVVVLDQERLYNELKRDLPHFVRTVLLPKSGGVVERSKDFRRECRDERIREYFYGFRGCFYPHAFNVKFSDVKIYKVGAPTIPDSCLPLGMSQEDNQLKLVPVTPGRDMVHHLLSVSTAEGTEENLSETSVAGFIVVTSVDLEHQVFTVLSPAPRPLPKNFLLIMDIRFMDLK
- binding [1]: binds
- binding [2]: binds
